This test addresses PrP (prion protein), endogenous in SMB-S15 and SMB-PS cells (mouse (endogenous in SMB-S15 and SMB-PS)) (UniProt P04925). In words: co-IP.

By UniProt entry, the sequences of proteins in these tests, tags left out. Residues count along the entry.
UniProt Q3UVX5, residues 19-1203: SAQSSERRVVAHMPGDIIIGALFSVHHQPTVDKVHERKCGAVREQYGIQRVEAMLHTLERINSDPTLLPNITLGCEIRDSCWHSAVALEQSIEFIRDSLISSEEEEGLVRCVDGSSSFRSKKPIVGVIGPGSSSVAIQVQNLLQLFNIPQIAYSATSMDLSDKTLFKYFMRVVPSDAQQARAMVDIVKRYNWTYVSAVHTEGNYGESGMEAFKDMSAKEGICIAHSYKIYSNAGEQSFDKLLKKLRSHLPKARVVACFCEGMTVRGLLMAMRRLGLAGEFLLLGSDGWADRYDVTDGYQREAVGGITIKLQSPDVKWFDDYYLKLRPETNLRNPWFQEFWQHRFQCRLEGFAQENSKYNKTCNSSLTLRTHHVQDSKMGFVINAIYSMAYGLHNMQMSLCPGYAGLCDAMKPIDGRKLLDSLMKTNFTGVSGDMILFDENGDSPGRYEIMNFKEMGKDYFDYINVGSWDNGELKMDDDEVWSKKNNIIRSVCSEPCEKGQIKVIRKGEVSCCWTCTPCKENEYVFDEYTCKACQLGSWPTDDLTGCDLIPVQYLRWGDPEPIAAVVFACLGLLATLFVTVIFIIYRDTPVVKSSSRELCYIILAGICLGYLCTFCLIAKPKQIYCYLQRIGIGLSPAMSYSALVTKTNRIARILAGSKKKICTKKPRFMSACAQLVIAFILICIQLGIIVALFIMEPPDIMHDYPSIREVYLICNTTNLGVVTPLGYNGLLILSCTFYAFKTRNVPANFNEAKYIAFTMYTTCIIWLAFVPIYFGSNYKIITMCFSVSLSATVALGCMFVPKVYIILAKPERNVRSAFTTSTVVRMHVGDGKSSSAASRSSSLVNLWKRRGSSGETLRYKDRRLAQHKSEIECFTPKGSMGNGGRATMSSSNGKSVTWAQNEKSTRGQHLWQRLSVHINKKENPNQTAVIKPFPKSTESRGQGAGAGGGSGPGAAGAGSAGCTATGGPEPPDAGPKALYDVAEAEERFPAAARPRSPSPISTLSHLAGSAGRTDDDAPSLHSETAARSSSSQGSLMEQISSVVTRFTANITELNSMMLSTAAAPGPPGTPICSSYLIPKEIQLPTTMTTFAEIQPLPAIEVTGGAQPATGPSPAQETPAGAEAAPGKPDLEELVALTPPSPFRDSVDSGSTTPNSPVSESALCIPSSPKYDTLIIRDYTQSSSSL

Results are given in words; binding and its absence hold for the method and conditions named. Binding seen in cells or lysates may run through a third protein. Some entries that bind do so weakly or less than the wild type.

From publication PMC9133610 come the findings set out here.

Consider “Metabotropic glutamate receptor subtype 5 (mGluR5), endogenous in SMB-S15 and SMB-PS cells (from UniProt Q3UVX5 19-1203)”, for which the binding result is recorded as “binds”.
